In paper PMC8353525:
These are yes or no findings as the source states them, for the method shown. In cells and extracts the contact can be indirect. Some binding calls cover weakened binding; strength is not graded here.

Sequences of proteins named here, by UniProt entry; tags and fusion partners are left off. A change or cut given only in a name is not applied to a line headed by its entry. A line that says so, or that is headed by a name, gives the form on record, which may keep a tag or linker.
Yes-associated protein 1 (P46938-2, form named): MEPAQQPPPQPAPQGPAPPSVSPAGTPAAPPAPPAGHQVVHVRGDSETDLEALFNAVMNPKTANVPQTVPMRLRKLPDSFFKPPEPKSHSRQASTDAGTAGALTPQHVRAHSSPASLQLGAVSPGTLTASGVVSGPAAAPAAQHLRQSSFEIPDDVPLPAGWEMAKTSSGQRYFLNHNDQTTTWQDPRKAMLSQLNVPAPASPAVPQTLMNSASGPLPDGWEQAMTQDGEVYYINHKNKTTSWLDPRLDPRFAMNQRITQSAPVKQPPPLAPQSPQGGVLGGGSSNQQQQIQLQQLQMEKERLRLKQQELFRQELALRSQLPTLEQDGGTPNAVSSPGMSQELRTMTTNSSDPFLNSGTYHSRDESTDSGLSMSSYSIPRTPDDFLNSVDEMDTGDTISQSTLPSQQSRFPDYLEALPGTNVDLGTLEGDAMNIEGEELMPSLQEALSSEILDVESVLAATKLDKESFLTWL
UniProt Q8BUN5: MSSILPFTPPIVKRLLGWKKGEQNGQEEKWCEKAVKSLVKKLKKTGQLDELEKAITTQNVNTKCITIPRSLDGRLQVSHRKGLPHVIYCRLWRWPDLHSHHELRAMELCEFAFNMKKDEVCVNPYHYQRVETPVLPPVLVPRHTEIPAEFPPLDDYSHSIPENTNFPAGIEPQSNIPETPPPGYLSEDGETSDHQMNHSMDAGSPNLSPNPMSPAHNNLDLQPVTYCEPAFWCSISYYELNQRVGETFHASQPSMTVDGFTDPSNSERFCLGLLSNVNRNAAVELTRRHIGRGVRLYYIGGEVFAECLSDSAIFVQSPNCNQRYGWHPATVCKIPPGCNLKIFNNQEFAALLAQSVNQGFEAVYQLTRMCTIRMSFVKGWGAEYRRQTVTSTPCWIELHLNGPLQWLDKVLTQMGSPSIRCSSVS
UniProt P97471: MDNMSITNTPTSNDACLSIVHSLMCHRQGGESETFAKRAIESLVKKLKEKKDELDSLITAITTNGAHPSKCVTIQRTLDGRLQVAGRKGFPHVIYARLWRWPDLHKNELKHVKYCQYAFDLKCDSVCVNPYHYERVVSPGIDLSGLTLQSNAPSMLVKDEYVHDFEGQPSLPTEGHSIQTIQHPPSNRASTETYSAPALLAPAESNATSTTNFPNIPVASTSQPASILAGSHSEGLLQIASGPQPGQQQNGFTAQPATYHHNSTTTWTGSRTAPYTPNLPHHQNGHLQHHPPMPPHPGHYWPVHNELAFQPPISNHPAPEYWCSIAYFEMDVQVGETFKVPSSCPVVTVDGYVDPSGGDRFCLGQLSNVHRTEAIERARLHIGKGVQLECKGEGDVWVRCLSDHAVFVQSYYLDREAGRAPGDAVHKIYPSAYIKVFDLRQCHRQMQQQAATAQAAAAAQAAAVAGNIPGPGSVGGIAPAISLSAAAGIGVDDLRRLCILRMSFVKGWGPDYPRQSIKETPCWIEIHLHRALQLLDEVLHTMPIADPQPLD

Experiments:
[1] = target: Yes-associated protein 1 (mouse (endogenous in mouse lung EC)) (UniProt P46938); assay: co-IP; IP of YAP from the nuclear or the cytosolic fraction of wild-type EC treated with TGFβ for 45 min; western blot
[2] = target: SMAD3 (mouse (endogenous in mouse lung EC)) (UniProt Q8BUN5); assay: co-IP; IP of SMAD3 from total cell extracts of YAP wild-type and knockout EC, untreated or TGFβ 45 min; lysis buffer 50 mM Tris-HCl pH 7.4, 150 mM NaCl, 2 mM CaCl2, 0.1% Triton X-100, 0.1% NP-40; overnight at 4°C on protein A or G Sepharose; western blot
[3] = target: SMAD4 (mouse (endogenous in mouse lung EC)) (UniProt P97471); assay: co-IP; IP of SMAD4 from total cell lysate of YAP wild-type and knockout EC, with or without TGFβ for 2 h; species-matching antibody as negative control; western blot

| binding [1] | binding [2] | binding [3] | Substance |
| --- | --- | --- | --- |
| binds |  |  | SMAD3 (from UniProt Q8BUN5 1-425) |
|  | binds | no binding | Yes-associated protein 1 (from UniProt P46938-2 1-472) |
|  | binds |  | SMAD4 (from UniProt P97471 1-551) |
